Data published in paper PMC5589623.
No constants are given. Whether binding was seen depends on the method and setting. Binding seen in cells or lysates may run through a third protein. Here binding means that the protein was enriched with, or labelled near, the bait; the list need not be complete.

Amino acid sequences for entries named in this document (tags omitted).
UniProt O14744: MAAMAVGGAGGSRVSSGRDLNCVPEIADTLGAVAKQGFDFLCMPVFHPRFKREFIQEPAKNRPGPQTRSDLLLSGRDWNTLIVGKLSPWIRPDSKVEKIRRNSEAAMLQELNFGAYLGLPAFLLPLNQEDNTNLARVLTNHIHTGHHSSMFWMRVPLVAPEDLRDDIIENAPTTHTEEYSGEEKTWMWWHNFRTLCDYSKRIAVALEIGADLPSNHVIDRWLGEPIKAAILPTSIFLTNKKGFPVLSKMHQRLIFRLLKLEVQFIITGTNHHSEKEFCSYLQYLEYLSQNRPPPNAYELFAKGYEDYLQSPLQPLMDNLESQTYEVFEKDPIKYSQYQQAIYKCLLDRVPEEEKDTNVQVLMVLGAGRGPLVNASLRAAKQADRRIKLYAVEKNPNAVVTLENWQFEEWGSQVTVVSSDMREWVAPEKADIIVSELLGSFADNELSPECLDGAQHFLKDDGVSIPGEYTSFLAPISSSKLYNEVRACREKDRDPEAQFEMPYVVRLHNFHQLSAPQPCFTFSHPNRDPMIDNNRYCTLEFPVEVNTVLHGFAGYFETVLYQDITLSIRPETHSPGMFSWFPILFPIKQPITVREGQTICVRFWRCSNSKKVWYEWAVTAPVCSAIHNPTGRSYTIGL

Target: T1, SHARPIN (Shank-associated RH domain interacting protein) (human (endogenous in A549)) (UniProt Q9H0F6)
T1 sequence: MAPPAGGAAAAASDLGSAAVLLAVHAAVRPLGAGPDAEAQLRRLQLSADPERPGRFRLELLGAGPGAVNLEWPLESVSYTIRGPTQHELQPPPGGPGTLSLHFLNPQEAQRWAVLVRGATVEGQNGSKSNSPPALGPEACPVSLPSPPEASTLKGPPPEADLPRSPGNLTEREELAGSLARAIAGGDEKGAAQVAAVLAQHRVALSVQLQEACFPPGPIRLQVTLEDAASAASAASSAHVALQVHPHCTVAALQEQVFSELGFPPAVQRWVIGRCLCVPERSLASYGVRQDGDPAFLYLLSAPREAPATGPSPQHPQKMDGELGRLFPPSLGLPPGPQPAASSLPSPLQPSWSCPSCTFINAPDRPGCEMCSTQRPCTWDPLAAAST
Assay: affinity purification with mass spectrometry; A549 lysate (150 mM NaCl, 50 mM Tris-HCl pH 7.5, 1% Triton X-100), immunoprecipitation with anti-SHARPIN antibody on protein A-agarose at 4°C overnight, no-antibody control, on-bead trypsin digestion, LC-MS/MS

PRMT5 (Protein arginine methyltransferase 5) (from UniProt O14744 1-637) (enzyme)
binding: binds
